Some results were stated once for a whole list of compounds, not compound by compound. For part of these data: At least one structure is not confirmed: it was looked up by name or label, or the drawing left a doubt.
Tests used:
Format in all cases: in vivo
[1] = tested on: Spodoptera littoralis; assay: Spodoptera littoralis (Egyptian Cotton Leafworm) cotton leaf disc spray test; details: 200 ppm spray on cotton leaf discs, L1 larvae, mortality, feeding behavior, growth regulation 3 DAT
[2] = tested on: Plutella xylostella; assay: Plutella xylostella (Diamond Back Moth) artificial diet MTP test; details: 200 ppm (concentration in well 18 ppm), L2 larvae, 6 days, larval mortality, growth regulation
[3] = tested on: Diabrotica balteata; assay: Diabrotica balteata (Corn Root Worm) artificial diet MTP test; details: 200 ppm (concentration in well 18 ppm), L2 larvae, 5 days, larval mortality, growth regulation
[4] = tested on: Tetranychus urticae; assay: Tetranychus urticae (Two-Spotted Spider Mite) bean leaf disc spray test; details: 200 ppm spray on bean leaf discs, mite populations of mixed ages, 8 days; egg, larval and adult mortality
[5] = tested on: Heliothis virescens; assay: Heliothis virescens (Tobacco Budworm) egg test on artificial diet; details: 200 ppm (concentration in well 18 ppm), eggs 0-24 h old on artificial diet, 4 days; egg mortality, larval mortality, growth regulation
[6] = tested on: Thrips tabaci; assay: Thrips tabaci (Onion Thrips) sunflower leaf disc spray test; details: 200 ppm spray on sunflower leaf discs, population of mixed ages, 7 days; mortality
[7] = tested on: Myzus persicae; assay: Myzus persicae (Green Peach Aphid) sunflower leaf disc spray test; details: 200 ppm spray on sunflower leaf discs, aphid population of mixed ages, 6 DAT; mortality

COc1c(NC(=O)c2ccc(Cl)nc2Cl)cccc1C(=O)Nc1c(Cl)cc(C(F)(C(F)(F)F)C(F)(F)C(F)(F)F)cc1Br (stereo not drawn) [B128]
at least 80%: control of Spodoptera littoralis [1] | control of Plutella xylostella [2] | control of Diabrotica balteata [3] | control of Tetranychus urticae [4] | control of Heliothis virescens [5]

COc1c(NC(=O)c2cccnc2Cl)cccc1C(=O)Nc1c(Cl)cc(C(F)(C(F)(F)F)C(F)(F)C(F)(F)F)cc1Br (stereo not drawn) [B202]
at least 80%: control of Spodoptera littoralis [1] | control of Plutella xylostella [2] | control of Diabrotica balteata [3] | control of Thrips tabaci [6] | control of Tetranychus urticae [4] | control of Heliothis virescens [5]

COc1c(NC(=O)c2ccc([N+](=O)[O-])cc2C)cccc1C(=O)Nc1c(Cl)cc(C(F)(C(F)(F)F)C(F)(F)C(F)(F)F)cc1Cl (stereo not drawn) [C25]
at least 80%: control of Spodoptera littoralis [1] | control of Plutella xylostella [2] | control of Diabrotica balteata [3] | control of Thrips tabaci [6] | control of Tetranychus urticae [4] | control of Heliothis virescens [5]

COc1c(NC(=O)c2ccc(Cl)cc2Cl)cccc1C(=O)Nc1c(Cl)cc(C(F)(C(F)(F)F)C(F)(F)C(F)(F)F)cc1Cl (stereo not drawn) [C26]
at least 80%: control of Spodoptera littoralis [1] | control of Plutella xylostella [2] | control of Diabrotica balteata [3] | control of Thrips tabaci [6] | control of Tetranychus urticae [4] | control of Heliothis virescens [5]

COc1c(NC(=O)c2cccnc2Cl)cccc1C(=O)Nc1c(Cl)cc(C(F)(C(F)(F)F)C(F)(F)C(F)(F)F)cc1Cl (stereo not drawn) [C29]
at least 80%: control of Spodoptera littoralis [1] | control of Plutella xylostella [2] | control of Diabrotica balteata [3] | control of Thrips tabaci [6] | control of Tetranychus urticae [4] | control of Heliothis virescens [5]

COc1c(NC(=O)c2c(F)cc(F)cc2F)cccc1C(=O)Nc1c(Cl)cc(C(F)(C(F)(F)F)C(F)(F)C(F)(F)F)cc1Cl (stereo not drawn) [C33]
at least 80%: control of Spodoptera littoralis [1] | control of Plutella xylostella [2] | control of Diabrotica balteata [3] | control of Thrips tabaci [6] | control of Tetranychus urticae [4] | control of Heliothis virescens [5]

COc1c(C(=O)Nc2c(Cl)cc(C(F)(C(F)(F)F)C(F)(F)C(F)(F)F)cc2Cl)cccc1N(C)C(=O)c1ccc(F)cc1Cl (stereo not drawn) [D5]
at least 80%: control of Spodoptera littoralis [1] | control of Plutella xylostella [2] | control of Diabrotica balteata [3] | control of Thrips tabaci [6] | control of Tetranychus urticae [4] | control of Heliothis virescens [5]

CCN(C(=O)c1ccc(F)cc1Cl)c1cccc(C(=O)Nc2c(Cl)cc(C(F)(C(F)(F)F)C(F)(F)C(F)(F)F)cc2Cl)c1OC (stereo not drawn) [D6]
at least 80%: control of Spodoptera littoralis [1] | control of Plutella xylostella [2] | control of Diabrotica balteata [3] | control of Tetranychus urticae [4] | control of Heliothis virescens [5]

COc1c(C(=O)Nc2c(Cl)cc(C(F)(C(F)(F)F)C(F)(F)C(F)(F)F)cc2Cl)cccc1N(C)C(=O)c1ccccc1C (stereo not drawn) [D8]
at least 80%: control of Spodoptera littoralis [1] | control of Plutella xylostella [2] | control of Diabrotica balteata [3] | control of Tetranychus urticae [4]

COc1c(C(=O)Nc2c(Cl)cc(C(F)(C(F)(F)F)C(F)(F)C(F)(F)F)cc2Cl)cccc1N(C)C(=O)c1ccc(F)cc1C (stereo not drawn) [D11]
at least 80%: control of Spodoptera littoralis [1] | control of Plutella xylostella [2] | control of Diabrotica balteata [3] | control of Tetranychus urticae [4] | control of Heliothis virescens [5]

COc1c(C(=O)Nc2c(Cl)cc(C(F)(C(F)(F)F)C(F)(F)C(F)(F)F)cc2Cl)cccc1N(C)C(=O)c1ccc([N+](=O)[O-])cc1Cl (stereo not drawn) [D13]
at least 80%: control of Spodoptera littoralis [1] | control of Plutella xylostella [2] | control of Diabrotica balteata [3] | control of Tetranychus urticae [4] | control of Heliothis virescens [5]

COc1c(C(=O)Nc2c(Cl)cc(C(F)(C(F)(F)F)C(F)(F)C(F)(F)F)cc2Cl)cccc1N(C)C(=O)c1ccccc1C(F)(F)F (stereo not drawn) [D21]
at least 80%: control of Diabrotica balteata [3] | control of Myzus persicae [7]

COc1c(C(=O)Nc2c(Cl)cc(C(F)(C(F)(F)F)C(F)(F)C(F)(F)F)cc2Cl)cccc1N(C)C(=O)c1snnc1C (stereo not drawn) [D22]
at least 80%: control of Spodoptera littoralis [1] | control of Plutella xylostella [2] | control of Diabrotica balteata [3] | control of Thrips tabaci [6] | control of Tetranychus urticae [4] | control of Heliothis virescens [5]

CCN(C(=O)c1ccc([N+](=O)[O-])cc1Cl)c1cccc(C(=O)Nc2c(Cl)cc(C(F)(C(F)(F)F)C(F)(F)C(F)(F)F)cc2Cl)c1OC (stereo not drawn) [D32]
at least 80%: control of Spodoptera littoralis [1] | control of Plutella xylostella [2] | control of Diabrotica balteata [3] | control of Thrips tabaci [6] | control of Tetranychus urticae [4] | control of Heliothis virescens [5]

COc1c(C(=O)Nc2c(Cl)cc(C(F)(C(F)(F)F)C(F)(F)C(F)(F)F)cc2Cl)cccc1N(C)C(=O)c1ccc(C#N)cc1Cl (stereo not drawn) [D44]
at least 80%: control of Spodoptera littoralis [1] | control of Plutella xylostella [2] | control of Diabrotica balteata [3] | control of Thrips tabaci [6] | control of Tetranychus urticae [4] | control of Heliothis virescens [5]

COc1c(C(=O)Nc2c(Cl)cc(C(F)(C(F)(F)F)C(F)(F)C(F)(F)F)cc2Cl)cccc1N(C)C(=O)c1ccc([N+](=O)[O-])cc1 (stereo not drawn) [D46]
at least 80%: control of Spodoptera littoralis [1] | control of Plutella xylostella [2] | control of Diabrotica balteata [3] | control of Thrips tabaci [6] | control of Tetranychus urticae [4] | control of Heliothis virescens [5]

CCN(C(=O)c1ccc([N+](=O)[O-])cc1)c1cccc(C(=O)Nc2c(Cl)cc(C(F)(C(F)(F)F)C(F)(F)C(F)(F)F)cc2Cl)c1OC (stereo not drawn) [D47]
at least 80%: control of Spodoptera littoralis [1] | control of Plutella xylostella [2] | control of Diabrotica balteata [3] | control of Thrips tabaci [6] | control of Tetranychus urticae [4] | control of Heliothis virescens [5]

COc1c(NC(=O)c2ccc(C#N)cc2Cl)cccc1C(=O)Nc1c(C)cc(C(F)(C(F)(F)F)C(F)(F)F)cc1C [K3]
at least 80%: control of Spodoptera littoralis [1] | control of Plutella xylostella [2] | control of Diabrotica balteata [3] | control of Tetranychus urticae [4] | control of Heliothis virescens [5]

CCN(C(=O)c1ccc(C#N)cc1C)c1cccc(C(=O)Nc2c(Cl)cc(C(F)(C(F)(F)F)C(F)(F)C(F)(F)F)cc2Br)c1OC (stereo not drawn) [M1]
at least 80%: control of Spodoptera littoralis [1] | control of Plutella xylostella [2] | control of Thrips tabaci [6] | control of Tetranychus urticae [4] | control of Heliothis virescens [5]
